No constants are given. Whether binding was seen depends on the method and setting. In cells and extracts the contact can be indirect. Binding can be weak; no strength is given.
Molecular target: full length GFP-CD2AP (PAWS1-/- U2OS, Figure 4E) (not stated (CD2AP and xCD2AP plasmids listed)) (UniProt Q9Y5K6)
Assay: co-IP

Chains of the proteins cited; added tags and fusions are not shown. Lines headed by an entry give the natural chain unless they say otherwise; changes in a name come on top.
UniProt Q9Y5K6: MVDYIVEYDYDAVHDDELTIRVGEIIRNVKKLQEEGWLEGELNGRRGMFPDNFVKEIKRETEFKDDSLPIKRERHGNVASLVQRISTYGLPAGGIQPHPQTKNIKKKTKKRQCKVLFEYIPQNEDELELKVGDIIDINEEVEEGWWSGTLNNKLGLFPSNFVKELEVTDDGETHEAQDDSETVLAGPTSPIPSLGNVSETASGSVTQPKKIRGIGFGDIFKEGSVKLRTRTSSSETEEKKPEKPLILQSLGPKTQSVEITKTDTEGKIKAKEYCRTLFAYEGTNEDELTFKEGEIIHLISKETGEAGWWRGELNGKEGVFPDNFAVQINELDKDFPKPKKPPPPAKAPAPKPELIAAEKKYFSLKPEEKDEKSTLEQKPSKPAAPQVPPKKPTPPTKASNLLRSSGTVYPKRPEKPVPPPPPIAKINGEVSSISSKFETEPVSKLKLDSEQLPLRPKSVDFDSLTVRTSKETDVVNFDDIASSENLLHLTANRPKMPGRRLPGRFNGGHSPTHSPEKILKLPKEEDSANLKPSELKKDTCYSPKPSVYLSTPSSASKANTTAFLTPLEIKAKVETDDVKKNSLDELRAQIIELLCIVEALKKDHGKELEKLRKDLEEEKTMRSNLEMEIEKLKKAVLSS
UniProt A6ND36: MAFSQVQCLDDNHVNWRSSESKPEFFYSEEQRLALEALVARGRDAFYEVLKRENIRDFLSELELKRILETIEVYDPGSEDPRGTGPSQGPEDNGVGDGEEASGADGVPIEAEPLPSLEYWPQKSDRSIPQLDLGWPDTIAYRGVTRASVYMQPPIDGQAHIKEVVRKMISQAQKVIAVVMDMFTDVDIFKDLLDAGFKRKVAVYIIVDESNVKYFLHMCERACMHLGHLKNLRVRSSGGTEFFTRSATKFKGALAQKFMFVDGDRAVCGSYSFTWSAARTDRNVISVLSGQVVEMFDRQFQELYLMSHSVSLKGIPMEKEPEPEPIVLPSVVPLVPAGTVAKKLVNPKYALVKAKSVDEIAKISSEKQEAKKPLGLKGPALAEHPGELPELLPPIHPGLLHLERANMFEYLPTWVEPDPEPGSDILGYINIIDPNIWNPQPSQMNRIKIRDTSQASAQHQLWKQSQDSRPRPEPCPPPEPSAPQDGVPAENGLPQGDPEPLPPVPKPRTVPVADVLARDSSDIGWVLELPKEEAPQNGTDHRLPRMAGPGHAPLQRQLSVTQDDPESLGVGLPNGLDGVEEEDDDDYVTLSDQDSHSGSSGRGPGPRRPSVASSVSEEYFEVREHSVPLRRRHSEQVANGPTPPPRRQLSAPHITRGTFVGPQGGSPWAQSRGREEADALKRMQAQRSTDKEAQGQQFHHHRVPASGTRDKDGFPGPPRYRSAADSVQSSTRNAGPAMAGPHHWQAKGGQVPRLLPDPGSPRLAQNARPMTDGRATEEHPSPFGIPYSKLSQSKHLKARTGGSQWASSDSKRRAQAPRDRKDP

- binding: binds
Substance: Myc-PAWS1 DUF1669 domain (1-294) (from UniProt A6ND36) (domain or fragment)
